To fix the notation:
B1: tRNA (parent)
chain: GUUCCGUUGGCGUAAUGGUAACGCGUCUCCCUCCUAAGGAGAAGACUGCGGGUUCGAGUCCCGUACGGAACG

Variants at the floor of the assay are shown more often than the library holds them.

This series covers variants of B1. Kind of series: yeast fitness relative to wild type (ratio to wild type); higher = fitter; tRNA-Arg(CCU), competitive growth, 37 C, YPD. An outline of the steps:
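Amplicons of the tRNA-Arg(CCU) gene were sequenced, 100-nucleotide paired-end, from the start population and from each end population of a pooled yeast competition. The competition, in six parallel replicates, lasted 24 hours in YPD at 37°C. Fitness relative to wild type was calculated from changes in genotype frequencies. Genotypes had to have ≥ 100 starting reads, and estimates < 0.5 were set to 0.5.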
On to GUUCCGUUGGCGUAAUGGUAACGCGUCUCCCUCCUAGGGAGAAGACUGCGGGUUCGUGUCCCGUACGGAACG [A37G A57U], for which the yeast fitness came to 0.55.
As for GUUCCGUUGGCGUAAUGGUAGCGCGUGUCCCUCGUAAGGAGACGAGUGCGGGUUCGAGUCCCGUACGGAGCG [A21G C27G C34G A43C C46G A70G], the yeast fitness was not above 0.5.
Turning to GUUCCGUUGGCGUAAUGAUAACGCGUCUCCCUCCUAAGGAGAAGACUGCGGGUUCGUCUCCCGUACGGAACG [G18A A57U G58C], the yeast fitness was not above 0.5.
Regarding GUUCCGUUGGCGUAAUGAUAACGCGUCUCCCUCCUAAGGAGAAGAUUGCGGGUUCGAGUUCCGUACGGAACG [G18A C46U C60U], the yeast fitness was not above 0.5.
Take GUUCCGUUGCCGUUAUGGUAACGCGUCUCCCUCCUAAAGAGAUGACUGCGGGUUCAAGUCCCGUACGGAACG [G10C A14U G38A A43U G56A]: the yeast fitness is not above 0.5.
With GUACCGUUGGCGUAAUGGUAACGCGUCUCCCUCCUAAGGAGAAGACUGCGGAUUCGAGUCCCGUACGGAACG [U3A G52A], the yeast fitness was found to be 0.764.
Consider GUUCCGUUGGCGUAAUGGUAACGCGUCUCCCUCCUAACGAGAAGACUGCGGGGUCGAGGCCAGUACGGAACG [G38C U53G U59G C62A], for which the yeast fitness was not above 0.5.
For GUUCCGUUGGCGUAAUGGUAACGCGUCUCCCUCCUAAGGAGUAGACUGUGGGUUCGAGUCCCGUAGGGAACG [A42U C49U C66G], the yeast fitness is not above 0.5.
Consider GUUACGUUGGCGUAAUGGUAACGCGUCUCCCCCCCAAGGAGAAGACUCCGGGUUUAAGUCCCGUACGGAGCG [C4A U32C U35C G48C C55U G56A A70G], for which the yeast fitness is not above 0.5.
On to GUUGGGUUGGCGUAAUGGUAACGCGUGUCCCUCCUCAGGAGAAGACUGAGGGUUCGAGUCCCGUACGGAACG [C4G C5G C27G A36C C49A], for which the yeast fitness was not above 0.5.
The value for GUACCGUUGGCGUCAUGGUCACGCGUCUCCCUCCUAAGGAGAAGACUGCGGGUUCGAGUCCCGAACGGAACG [U3A A14C A20C U64A] was not above 0.5; that for GUUCCGUUGGCGUAAUGGUAACGCCUCUCCCUACUAAGGAGAAGACUGCCGGUCCGAGUCCCGUACGGAACG [G25C C33A G50C U54C] was not above 0.5; that for GUUCCGUUGGCGUAAUGCUAACGUGUCUCCCUCCUAAGGUGAAGACUGCGGGUUCGAGUCCCGUACGGAACG [G18C C24U A40U] was not above 0.5.
Take GUCCCGUUGGCGUAAUGGUAACGCGUCUCCCUCCUAAGGAGAAGACUGCGGGAUCGAGUCCCGUACGGAACG [U3C U53A]: the yeast fitness stood at 0.664.
For the variant GUUCCGUUGGCGUAAUGGUAACGCGUCUCCCUACUUAGGAGAAGACUGCGGGUUCGAGUCUCGUACGGAACG [C33A A36U C61U], the yeast fitness is not above 0.5.
For GUUCCGUUGGCGUAACGGUAACGCGUCUCCCUCCUGAGGAGAAGGCUGCGGGUUCGAGACCCGUACGGAACG [U16C A36G A45G U59A], the yeast fitness was not above 0.5.
Regarding GUUCCGUUGGCGUUAUGGUAACGCGCCUCCCUCCUAAGGAGACGAAUGCGGGUUCGAGUCCCGUACGGAACG [A14U U26C A43C C46A], the yeast fitness is not above 0.5.
Regarding GGUCCGUUGGCGUAAUGGUAACGCGUCUCAUUCCUAAGGAGAAGCCUGCGGGUUGGAGUCCCGUACGGAACG [U2G C30A C31U A45C C55G], the yeast fitness was not above 0.5.
GUUCCGUUGGAGUAAUGGUAAGGCGUCUGCCUCCUAAGGAGAAGACUGCGGGUUUGAGUCCCGUACGGUACG [C11A C22G C29G C55U A69U]: the yeast fitness was not above 0.5.
With GUUCCGUUGGAGUAAUGGUAACGCGUCUCCCUCCUAAGGAGAAGACUGCGAGUUCGAGUCCCGUACGGCACG [C11A G51A A69C], the yeast fitness is not above 0.5.
For the variant GUUCCGUUGGCGUAAUGCUAACGCCUCGCCCUCCUAAGGAGGAGACCGUGGGUUCGUGUCCCGUACGGAACG [G18C G25C U28G A42G U47C C49U A57U], the yeast fitness is not above 0.5.
Consider GUUCCGUUGGCGUAAGGGUAACGCGUCUCGCUCCUAAGGAGAAGACUGCGGCUUCGAGUCCCGUACGGAACG [U16G C30G G52C], for which the yeast fitness was not above 0.5.
As for GUUCCGUUGGAGUAAUGGUAACGCGUUUCCUUCGUAAGGGGAAGACUGCGGGUUCGAGUCCCCUACGGAACG [C11A C27U C31U C34G A40G G63C], the yeast fitness is not above 0.5.
Consider GUUCCGUUGGCGUAAUGGUAACGCGACUCUCUCCUAAGGAGAAGACUGCGGGUUCGAGUCCAGUUCGGAACG [U26A C30U C62A A65U], for which the yeast fitness is not above 0.5.
The result for GAUCCGUUGGCGUAUUGGUAACGCGUCUCCCUCCUACGGAGAAGACUGCGGGUUCGAGUCCCGUACGGAACG [U2A A15U A37C] reads not above 0.5; that for GUUCCGUCGGCGUAAUGGUAACGAGUCUCCCUCCGAAGGAGAAGACUGCGGAUUCGAGUCCCGAACGGAACG [U8C C24A U35G G52A U64A], not above 0.5; that for GUUCCGUUCGCGUAAUGGUAACGCGUCUCCCUCCUAAGGAGAAGAGUGCGGGUUCGAGUCCGGUACGGGACG [G9C C46G C62G A69G], not above 0.5.
GUUACGUUGGCAUAAUGGUAACGCGUCUCCCUACUAAGGAGAAGACUGCGGGUUCGAGUACCGCACGGAACG [C4A G12A C33A C60A U64C]: the yeast fitness was not above 0.5.
Turning to GUUCCGUUGGCAUAAUGGUAACGCGUCUCCCUCCUAAGGAGAAGACUGCGGGUUCGAGUCCCGUUCGGAACG [G12A A65U], the yeast fitness is 0.861.
Consider GUUCCGUUGCUGCAAUGCUAACGCGUUUCCCUGCUAAGGAGAAGACUGCGGGUUUGAGUCCCGAACGCAUCG [G10C C11U U13C G18C C27U C33G C55U U64A G68C A70U], for which the yeast fitness was not above 0.5.
The result for GUUCCGUUGGCGUAAUGGUUAGGCGUCUCCCCCCUAAGGAGAAGACUGCGGGUUCGAGUCCCGUACGGAACG [A20U C22G U32C] reads not above 0.5; that for GUUCCGUUGGCGUCAUGGUAACGCGUCUCCCUCCUAAGGAGAAGACUGCGGGUUCGAGUCCGGUAAGGAACG [A14C C62G C66A], not above 0.5.
Turning to GUUCCGUUGGUAUAAUGGUAACGCGUCUCCCUCCUAAGGAGAACAUUGCGGGUUCGAGUCCCGUACGGACCG [C11U G12A G44C C46U A70C], the yeast fitness was not above 0.5.
The value for GUUCCGUUGGCGUAAUGGUAACGCGUCUCCCUCCUAAGGAGAAGACUGCGGGUUCGACUCCCAUACGGAACG [G58C G63A] was 0.873.
For GUUCCGUUGGCGUAAUGGUAACGCGUCUGCCUCCAAAGGAGAAGACUGCGGAUUGGUGUCCCGUACGGAACG [C29G U35A G52A C55G A57U], the yeast fitness is not above 0.5.
As to GUUCCGUUGGCGUAAUGGUAACGCGUUUCCCUCCUAAGGAGAAGAGUGCGAAUUCGAGUCCCGUACGGAACG [C27U C46G G51A G52A], the yeast fitness was not above 0.5.
As for GUUCCGUUGGCGUAAUGGUAACGCGUCUCCCUCCUAAGGAAAAGACUACGGGUUCGAGUCCCGUACGUACCG [G41A G48A G68U A70C], the yeast fitness was not above 0.5.
Turning to GUUCCGUCGGCGUAAUGGUAACGCGUCUCCCUCCUAAGGAGAAGUCUGCGGGUUCGAGCCCCGUACGGAACG [U8C A45U U59C], the yeast fitness amounted to 0.57.

Source of the values: the RNAGym collection of RNA variant scans (doi:10.1126/science.aae0568).
